Measurements: PubChem BioAssay AID588590 (National Center for Advancing Translational Sciences (NCATS), 2011)
The whole screen tested about 390,000 compounds, of which about 4,000 (1%) were called active. The inconclusive results got no clear call from the source; some entries with a clear call stand among them for comparison. Calls come from the whole dose curve; as a rule, active = well fitted inhibition curve with a large enough effect; inconclusive = small, poorly fitted or top-dose-only effect, or another doubt; inactive = no such curve, though single readings can be large or run the other way. Where the call is inconclusive, the potency comes from a doubtful curve fit.

Protein sequences, listed by entry. Tags and fused reporters are not part of them. Lines headed by an entry give the natural chain unless they say otherwise; changes in a name come on top.
UniProt Q9UNA4: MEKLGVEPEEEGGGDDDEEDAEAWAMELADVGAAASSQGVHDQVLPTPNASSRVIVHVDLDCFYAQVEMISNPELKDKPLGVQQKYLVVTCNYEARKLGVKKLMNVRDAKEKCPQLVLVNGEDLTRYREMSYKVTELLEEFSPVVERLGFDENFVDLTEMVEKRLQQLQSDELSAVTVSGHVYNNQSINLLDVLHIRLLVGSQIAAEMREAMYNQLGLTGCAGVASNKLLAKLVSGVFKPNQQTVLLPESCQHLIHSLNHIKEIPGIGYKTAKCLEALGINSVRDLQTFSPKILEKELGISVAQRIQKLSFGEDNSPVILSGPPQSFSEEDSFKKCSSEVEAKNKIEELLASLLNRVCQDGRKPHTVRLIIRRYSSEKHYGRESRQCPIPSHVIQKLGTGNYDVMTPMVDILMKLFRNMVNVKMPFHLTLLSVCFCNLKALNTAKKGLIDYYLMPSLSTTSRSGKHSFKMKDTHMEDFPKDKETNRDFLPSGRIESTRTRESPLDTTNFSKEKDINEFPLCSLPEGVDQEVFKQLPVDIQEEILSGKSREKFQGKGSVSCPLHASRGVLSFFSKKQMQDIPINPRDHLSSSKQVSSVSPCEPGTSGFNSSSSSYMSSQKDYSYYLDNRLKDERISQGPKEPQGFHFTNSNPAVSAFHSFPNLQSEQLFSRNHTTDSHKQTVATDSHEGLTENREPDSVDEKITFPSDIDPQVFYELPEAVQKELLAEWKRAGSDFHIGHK

The compounds below were run against DNA polymerase iota (Homo sapiens) (UniProt Q9UNA4) (assay: qHTS for Inhibitors of Polymerase Iota). Settings: Pol iota fluorescent replication assay, 10 min; series mostly up to 115 µM.
Procedure, shortened: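 Pol iota at 10 nM preincubated 15 min with compounds at room temperature; reaction started with fluorescent substrate, 50 nM final. Fluorescence read kinetically at 0 and 10 min; buffer-only wells as negative control.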
Potency is the fitted concentration of half-maximal effect.

Potency, inactive:
CCc1ccc(NC(=O)C(=O)NCCc2sc(-c3ccc(OC)c(OC)c3)nc2C)cc1
NC(=O)N/N=C/c1cn(-c2ccccc2)nc1-c1cccs1
CCc1ccc(NC(=O)CSc2nc(-c3ccccc3)no2)cc1
NC(=O)C1CCN(c2ncnc3c2cnn3-c2ccccc2)CC1
COc1ccc(CCNC(=O)c2c(O)nc3c(C)cccn3c2=O)cc1OC
CCOc1ccc(/C=N/N2CCN(Cc3ccccc3)CC2)cc1
CCn1c(CN2CCCCC2)nc2cc(NC(=O)COc3ccccc3C(C)(C)C)ccc21
COc1ccc(N2CCN(C(=O)c3cc(-c4ccc(C)c(F)c4)on3)CC2)cc1
COc1ccc(N2CCN(C(=O)CSc3nc4ccccc4nc3Cc3ccc(Cl)cc3)CC2)cc1
COCCNC(=S)N/N=C(\C)c1ccc(Cl)c(Cl)c1Cl
Clc1ccc(/C=C\c2nccc3c2[nH]c2ccccc23)cc1
O=C1N/C(=C/c2cccn2-c2ccc(F)cc2)C(=O)N1Cc1ccccc1F
CCc1ccccc1NC(=O)Cn1ccn(-c2ccc(OC)cc2)c(=O)c1=O
O=c1c(N2CCc3ccccc3C2)csc2ccc(F)cc12
CCc1ccc(C(=O)c2cn(CC(=O)Nc3ccc4c(c3)OCCO4)c3ccc(CC)cc3c2=O)cc1
COc1cccc(C(=O)NCC(=O)N2CCN(c3ccc(C(F)(F)F)cn3)CC2)c1
COc1cc(C(=O)Nc2scc(-c3ccccc3)c2C(=O)O)cc(OC)c1OC

Part of the list above in order of count of non-hydrogen atoms, high to low:
Potency, inactive:
CCn1c(CN2CCCCC2)nc2cc(NC(=O)COc3ccccc3C(C)(C)C)ccc21
CCc1ccc(NC(=O)C(=O)NCCc2sc(-c3ccc(OC)c(OC)c3)nc2C)cc1
O=c1c(N2CCc3ccccc3C2)csc2ccc(F)cc12

Of the compounds above, these contain fluorine:
Potency, inactive:
COc1ccc(N2CCN(C(=O)c3cc(-c4ccc(C)c(F)c4)on3)CC2)cc1
O=C1N/C(=C/c2cccn2-c2ccc(F)cc2)C(=O)N1Cc1ccccc1F
O=c1c(N2CCc3ccccc3C2)csc2ccc(F)cc12
COc1cccc(C(=O)NCC(=O)N2CCN(c3ccc(C(F)(F)F)cn3)CC2)c1

Following part.

Potency, inconclusive:
COC(=O)c1cc(S(=O)(=O)NCc2ccccc2OC)cn1C 100 µM [inhibitor, single point]
CC(=O)c1cccc(NC(=O)C(C)OC(=O)CCc2nc3ccccc3c(=O)[nH]2)c1 (stereo unspecified) 25.1 µM [inhibitor, partial curve, poor fit]
CCC1Nc2ncnc(N3CCN(c4ccccn4)CC3)c2N(Cc2ccc(Cl)cc2)C1=O (stereo unspecified) 8.91 µM [inhibitor, full curve, poor fit]
O=c1cc2ncc(-c3[nH]ncc3[N+](=O)[O-])cn2[nH]1 50.1 µM [inhibitor, partial curve, poor fit]
O=C(COc1ccc2c3c(c(=O)oc2c1)CCC3)c1ccc2c(c1)OCO2 100 µM [inhibitor, partial curve]
Fc1ccc(-c2nc(-c3cccs3)no2)cc1 28.2 µM [inhibitor, partial curve]
Cc1cc(C)n(CCO)c(=O)n1 39.8 µM [inhibitor, single point]
O=C(C1CC1)N1N=C2CCCCC2C1(O)C(F)(F)F (stereo unspecified) 2.82 µM [inhibitor, full curve, poor fit]
Cc1sc(NC(=O)CN2CCCC2)nc1-c1ccc2c(c1)CCN2C(=O)c1ccc(F)cc1 14.1 µM [inhibitor, full curve]
CC1CCCCC12NC(=O)N(CC(=O)OCC(=O)NCc1ccc(F)cc1)C2=O (stereo unspecified) 89.1 µM [inhibitor, single point]
CCC(CC)C(=O)Nc1nnc(SCc2cc(=O)c3ccccc3[nH]2)s1 89.1 µM [inhibitor, partial curve, poor fit]
Cc1ccc(S(=O)(=O)N2CCC(C(=O)Nc3nnc(-c4ccco4)s3)CC2)cc1 79.4 µM [inhibitor, partial curve, poor fit]
Cc1nc2ccc(S(=O)(=O)NC(C(=O)Nc3nc4ccc(Cl)cc4s3)C(C)C)cc2s1 (stereo unspecified) 70.8 µM [inhibitor, single point]
Cc1cc(=O)[nH]c(SCCOc2cccc(C(F)(F)F)c2)n1 70.8 µM [inhibitor, single point]
COCCN(Cc1cc2cc(C)ccc2n2nnnc12)C(=S)Nc1ccccc1C 28.2 µM [inhibitor, partial curve, poor fit]
Cc1ccc(NC(=O)CSCC(=O)NC2CCCCC2)cc1 89.1 µM [inhibitor, partial curve, poor fit]
CCN(CC)CCn1cnc2c1c(=O)[nH]c(=O)n2Cc1ccccc1 70.8 µM [inhibitor, single point]
COc1ccc(OC)c(NS(=O)(=O)c2ccccc2)c1 89.1 µM [inhibitor, partial curve, poor fit]
CCOc1ccc(OCc2ccc(C(=O)Nc3cccc(C)n3)o2)cc1 79.4 µM [inhibitor, single point]
c1ccc(-c2csc3ncn4nnnc4c23)cc1 10 µM [inhibitor, partial curve, poor fit]
COc1nc(N(CC(N)=O)S(=O)(=O)c2ccccc2)nc(C)c1Cl 31.6 µM [inhibitor, single point]
Cn1c(SCCN2CCCCC2)nnc1-c1ccccc1Br 39.8 µM [inhibitor, single point]
COC(=O)c1ccc(NS(=O)(=O)c2ccc(Cl)cc2)o1 14.1 µM [inhibitor, partial curve, poor fit]
O=C(CSc1ccsc1[N+](=O)[O-])NCc1ccco1 22.4 µM [inhibitor, full curve, poor fit]
O=C(NCC1CC1)c1cc(-c2ccccc2)nn1CC1CC(c2cccnc2)=NO1 (stereo unspecified) 10 µM [inhibitor, partial curve]
Cc1cc(C)c2c(=O)[nH]n(C(C)C)c2n1 39.8 µM [inhibitor, single point]
Cc1c(CCC(=O)O)c(=O)oc2cc3occ(-c4ccc(Cl)cc4)c3cc12 20 µM [inhibitor, partial curve]
CC(=O)c1ccc2oc3ccccc3c(=O)c2c1 89.1 µM [inhibitor, single point]
CCCCCCCCCCCCCCCC[n+]1cccc2ccccc21 89.1 µM [inhibitor, single point]
O=[N+]([O-])c1cccc(-c2nc(-c3ccccn3)no2)c1 89.1 µM [inhibitor, single point]
CCOC(=O)N1CCN(CC(=O)NC(=O)Nc2ccc3c(c2)OCCO3)CC1 89.1 µM [inhibitor, single point]
C#CCOCCOCCOCCNc1nc(N2CCN(C(=O)Cn3cc(CCCN=C(N)N)nn3)CC2)nc(N2CCN(C(=O)[C@H](C(C)C)n3cc(CCO)nn3)CC2)n1 25.1 µM [inhibitor, partial curve, poor fit]
COc1ccc(C=O)cc1COc1ccc(F)cc1F 3.16 µM [inhibitor, partial curve, poor fit]
O=C(/C=C/c1ccco1)Nc1ccccc1C(=O)O 22.4 µM [inhibitor, full curve, poor fit]
Cc1cc(C)n2nc(C(=O)OCC(=O)Nc3ccc(C)c(F)c3)nc2n1 11.2 µM [inhibitor, partial curve, poor fit]
C=CCOC(=O)C(=O)/C=C/c1csc2ccccc12 6.31 µM [inhibitor, full curve]
CCOc1ccc2oc(C(=O)OC(C(=O)NC(N)=O)C(C)C)c(C)c2c1 (stereo unspecified) 10 µM [inhibitor, partial curve, poor fit]
Cc1ccc(S(=O)(=O)N2C[C@@H]3[C@H]4CC[C@H](C4)[C@@H]3[C@@H](C)[C@@H]2c2cccn2Cc2ccccc2)cc1 44.7 µM [inhibitor, partial curve, poor fit]
CCCc1nc2ccccc2c(C(=O)OC2CCOC2=O)c1CC (stereo unspecified) 20 µM [inhibitor, partial curve, poor fit]
CCCc1nc(SCC(=O)NNC(=O)c2ccc(OC)cc2)c2ccccc2n1 79.4 µM [inhibitor, single point]
CCN(CC)Cc1oc(CO)cc(=O)c1O 28.2 µM [inhibitor, partial curve, poor fit]
O=C(Cc1csc2ccccc12)NCc1ccc(F)cc1 44.7 µM [inhibitor, partial curve, poor fit]
Cc1cccc(NS(=O)(=O)c2cccc(C(=O)N3CCCC3)c2)c1 89.1 µM [inhibitor, single point]
O=C(Cc1ccccc1)Nc1ccc(NC(=O)c2cccs2)cc1Cl 79.4 µM [inhibitor, partial curve, poor fit]
C=C(C)COc1ccc2c(C)c(CCC(=O)NC3CC3)c(=O)oc2c1 56.2 µM [inhibitor, partial curve, poor fit]
CC(C)(C)c1ccc(C(=O)Nc2nc3nc(-c4ccccc4)cc(=O)n3[nH]2)cc1 89.1 µM [inhibitor, single point]
C#CC(C)(CC)NC(=O)Cn1nnc(-c2ccc(OCc3ccccc3Cl)cc2)n1 (stereo unspecified) 12.6 µM [inhibitor, partial curve, poor fit]
CN(C)C(CNC(=O)c1cccc(S(=O)(=O)N(C)C)c1)c1ccccc1 (stereo unspecified) 79.4 µM [inhibitor, partial curve]

Potency, active:
c1ccc(CSc2nnc(-c3ccco3)c(-c3ccco3)n2)cc1 7.94 µM
